{
  "source": "patent US6974839B2",
  "about": "“Method of delaying ejaculation” (DMI BioSciences, Inc., priority 2001, dated 2005)",
  "origin": "cited, not measured here",
  "system": "reuptake of norepinephrine",
  "details": "cited from earlier work",
  "data": [
    {"smiles": "COc1cccc(C2(O)CCCCC2CN(C)C)c1", "note": "(stereo not shown) [tramadol, 2-[(dimethylamino)methyl]-1-(3-methoxyphenyl)-cyclohexanol]", "values": [
      {"measurement": "inhibition of reuptake of norepinephrine", "result": "weak inhibition"}
    ]}
  ]
}
